No constants are given. Whether binding was seen depends on the method and setting. In cells and extracts the contact can be indirect. Here binding means that the protein was enriched with, or labelled near, the bait; the list need not be complete. For part of these data: No binding means not detected with the bait. One block for each binder: values may come before it.
Tests used:
[1] = target: complement factor H (FH) (human (endogenous in hTERT-RPE1)) (UniProt P08603); assay: affinity purification with mass spectrometry; hTERT-RPE1 lysates (0.5% NP40, TBS, after 48 h in serum free medium) with anti-FH antibody clone C18/3 or control IgG, 1 h 4 °C, Protein G PLUS-Agarose overnight 4 °C, acidic elution, tryptic digest, LC-MS/MS; enrichment over IgG control, FDR < 0.05
[2] = target: T1, complement factor H (FH) (human (endogenous in hTERT-RPE1)), P08603; assay: as above; conditions: remark: other sources report otherwise
T1 chain: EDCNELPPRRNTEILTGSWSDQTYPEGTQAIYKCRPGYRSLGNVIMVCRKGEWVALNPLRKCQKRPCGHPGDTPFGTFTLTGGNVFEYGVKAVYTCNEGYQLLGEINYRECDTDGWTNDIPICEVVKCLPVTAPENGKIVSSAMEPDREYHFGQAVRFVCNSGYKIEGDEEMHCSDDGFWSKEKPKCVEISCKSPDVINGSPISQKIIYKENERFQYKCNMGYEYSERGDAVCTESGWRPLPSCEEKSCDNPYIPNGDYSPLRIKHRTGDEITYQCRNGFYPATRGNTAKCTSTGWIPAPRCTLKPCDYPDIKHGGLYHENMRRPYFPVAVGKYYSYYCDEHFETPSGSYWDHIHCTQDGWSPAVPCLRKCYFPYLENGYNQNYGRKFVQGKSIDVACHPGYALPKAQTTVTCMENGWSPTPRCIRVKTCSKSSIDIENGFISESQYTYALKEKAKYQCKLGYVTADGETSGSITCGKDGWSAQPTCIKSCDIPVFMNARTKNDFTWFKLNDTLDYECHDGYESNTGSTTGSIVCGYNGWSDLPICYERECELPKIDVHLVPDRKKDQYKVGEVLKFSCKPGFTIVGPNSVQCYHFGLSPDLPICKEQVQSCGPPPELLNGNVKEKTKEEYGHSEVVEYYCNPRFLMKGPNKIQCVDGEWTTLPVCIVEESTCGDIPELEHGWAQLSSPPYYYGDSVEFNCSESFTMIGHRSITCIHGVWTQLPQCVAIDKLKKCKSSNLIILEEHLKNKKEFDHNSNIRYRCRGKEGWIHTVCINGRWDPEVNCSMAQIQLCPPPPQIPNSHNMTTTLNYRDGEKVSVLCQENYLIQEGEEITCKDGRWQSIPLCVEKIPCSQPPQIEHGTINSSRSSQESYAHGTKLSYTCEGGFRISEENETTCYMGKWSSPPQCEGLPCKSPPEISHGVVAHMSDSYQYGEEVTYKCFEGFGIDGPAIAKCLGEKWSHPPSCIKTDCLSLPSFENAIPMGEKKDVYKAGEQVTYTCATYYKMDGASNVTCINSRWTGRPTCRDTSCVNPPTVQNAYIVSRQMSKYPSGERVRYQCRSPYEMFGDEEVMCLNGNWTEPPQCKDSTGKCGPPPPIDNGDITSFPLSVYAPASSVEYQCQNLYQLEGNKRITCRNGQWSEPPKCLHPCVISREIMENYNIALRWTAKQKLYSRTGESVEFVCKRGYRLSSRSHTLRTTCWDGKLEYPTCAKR

binding [1]: binds
B1: TFDP2 (protein, UniProt Q14188 1-446)
chain: MTAKNVGLTSTNAEVRGFIDQNLSPTKGNISFVAFPVSNTNSPTKILPKTLGPINVNVGPQMIISTPQRLTSSGSVLIGSPYTPAPAMVTQTHIAEATGWVPGDRKRARKFIDSDFSESKRSKKGDKNGKGLRHFSMKVCEKVQRKGTTSYNEVADELVSEFTNSNNHLAADSAYDQKNIRRRVYDALNVLMAMNIISKEKKEIKWIGLPTNSAQECQNLEIEKQRRIERIKQKRAQLQELLLQQIAFKNLVQRNRQNEQQNQGPPALNSTIQLPFIIINTSRKTVIDCSISSDKFEYLFNFDNTFEIHDDIEVLKRMGMSFGLESGKCSLEDLKLAKSLVPKALEGYITDISTGPSWLNQGLLLNSTQSVSNLDLTTGATLPQSSVNQGLCLDAEVALATGQFLAPNSHQSSSAASHCSESRGETPCSFNDEDEEDDEEDSSSPE

binding [1]: binds
B2: RB1 (protein, UniProt P06400 1-928)
chain: MPPKTPRKTAATAAAAAAEPPAPPPPPPPEEDPEQDSGPEDLPLVRLEFEETEEPDFTALCQKLKIPDHVRERAWLTWEKVSSVDGVLGGYIQKKKELWGICIFIAAVDLDEMSFTFTELQKNIEISVHKFFNLLKEIDTSTKVDNAMSRLLKKYDVLFALFSKLERTCELIYLTQPSSSISTEINSALVLKVSWITFLLAKGEVLQMEDDLVISFQLMLCVLDYFIKLSPPMLLKEPYKTAVIPINGSPRTPRRGQNRSARIAKQLENDTRIIEVLCKEHECNIDEVKNVYFKNFIPFMNSLGLVTSNGLPEVENLSKRYEEIYLKNKDLDARLFLDHDKTLQTDSIDSFETQRTPRKSNLDEEVNVIPPHTPVRTVMNTIQQLMMILNSASDQPSENLISYFNNCTVNPKESILKRVKDIGYIFKEKFAKAVGQGCVEIGSQRYKLGVRLYYRVMESMLKSEEERLSIQNFSKLLNDNIFHMSLLACALEVVMATYSRSTSQNLDSGTDLSFPWILNVLNLKAFDFYKVIESFIKAEGNLTREMIKHLERCEHRIMESLAWLSDSPLFDLIKQSKDREGPTDHLESACPLNLPLQNNHTAADMYLSPVRSPKKKGSTTRVNSTANAETQATSAFQTQKPLKSTSLSLFYKKVYRLAYLRLNTLCERLLSEHPELEHIIWTLFQHTLQNEYELMRDRHLDQIMMCSMYGICKVKNIDLKFKIIVTAYKDLPHAVQETFKRVLIKEEEYDSIIVFYNSVFMQRLKTNILQYASTRPPTLSPIPHIPRSPYKFPSSPLRIPGGNIYISPLKSPYKISEGLPTPTKMTPRSRILVSIGESFGTSEKFQKINQMVCNSDRVLKRSAEGSNPPKPLKKLRFDIEGSDEADGSKHLPGESKFQQKLAEMTSTRTRMQKQKMNDSMDTSNKEEK

binding [2]: no binding
B3: Fibulin3, Q12805 18-493 (protein)
chain: QDTEETITYTQCTDGYEWDPVRQQCKDIDECDIVPDACKGGMKCVNHYGGYLCLPKTAQIIVNNEQPQQETQPAEGTSGATTGVVAASSMATSGVLPGGGFVASAAAVAGPEMQTGRNNFVIRRNPADPQRIPSNPSHRIQCAAGYEQSEHNVCQDIDECTAGTHNCRADQVCINLRGSFACQCPPGYQKRGEQCVDIDECTIPPYCHQRCVNTPGSFYCQCSPGFQLAANNYTCVDINECDASNQCAQQCYNILGSFICQCNQGYELSSDRLNCEDIDECRTSSYLCQYQCVNEPGKFSCMCPQGYQVVRSRTCQDINECETTNECREDEMCWNYHGGFRCYPRNPCQDPYILTPENRCVCPVSNAMCRELPQSIVYKYMSIRSDRSVPSDIFQIQATTIYANTINTFRIKSGNENGEFYLRQTSPVSAMLVLVKSLSGPREHIVDLEMLTVSSIGTFRTSSVLRLTIIVGPFSF
